In patent publication US8476280B2, “Compositions and methods for combating lower urinary tract dysfunctions with delta opioid receptor agonists” (Versi Group, LLC, priority 2002, dated 2013):
Some entries share one result that the patent states for a list of compounds.

Tested on: healthy conscious rats
Assay: Cystometric parameters in healthy conscious rats
Format: in vivo, rat
Settings: intravenous administration, recorded 90 minutes after injection
Description: Male rats weighing 200 to 250 grams were used. The rats were housed with free access to food and maintained on forced 12 hours alternating light-dark cycle at 22-24° C. for at least one week, except during performance of the experiment.
The rats were anesthetized with pentobarbital, 65 mg/kg i.p. and placed in a supine position. An approximately 10 mm long midline incision was made in the shaved and cleaned abdominal wall. The urinary bladder was freed from adhering tissues, emptied and then cannulated, via an incision at the dome with a polyethylene cannula (PE50), which was permanently sutured in place. The cannula was exteriorized through a subcutaneous tunnel in the retroscapular area, where it was connected with a plastic adapter to avoid the risk of removal by the rats. For intravenous (i.v.) injection of test compounds, a polyethylene tubing (PE50) was inserted into the jugular vein and exteriorized in the retroscapular area. Since cystometrographic parameters have been reported to be influenced by the time elapsed after catheter implantation, the rats were treated with 1 mg/kg Penicilline G, intramuscularly, to prevent infection and allowed to rest 3 days after implantation and before testing commenced. […]
On the day of the experiments, the rats were placed in Bollman's cages, the free tip of the bladder catheter was connected through a T-shaped tube to a pressure transducer (Grass PT300 or Gould P23) to record bladder pressure and to a peristaltic pump for continuous infusion, at a constant rate of […] of saline solution into the urinary bladder. The intraluminal pressure signal during infusion was continuously recorded. Two urodynamic parameters were evaluated: micturition pressure and interval between micturition that equates to volume capacity before detrusor contraction occurs (decrease in frequency of contractions). […] Data was calculated as the mean of testing results for several animals at each dosage. The drug effects were expressed as a percent relative to activity of the control data, which was set at 100%. […]

Row | SMILES | frequency of bladder contractions (interval between micturition)
1 | C=CCN1C[C@H](C)N(C(c2ccc(C(=O)N(CC)CC)cc2)c2cccc(OCC(=O)O)c2)C[C@H]1C (stereo partly drawn) [Compound 3, 3-((alpha-R)-alpha-((2S,5R)-4-allyl-2,5-dimethyl-1-piperazinyl)-4-(diethylaminocarbonyl)benzyl)phenoxyacetic acid] | a decrease in the frequency of the bladder contractions
2 | C=CCN1C[C@H](C)N(C(c2ccccc2)c2cccc(C(=O)N(C)c3cccc(F)c3)c2)C[C@H]1C (stereo partly drawn) [Compound 4, 3-((alpha-S)-alpha-((2S,5R)-4-Allyl-2,5-dimethyl-1-piperazinyl)benzyl)-N-(3-fluorophenyl)-N-methylbenzamide] | a decrease in the frequency of the bladder contractions
3 | CN(C(=O)c1cccc(C(=C2CCNCC2)c2cccc(O)c2)c1)c1cccc(F)c1 [Compound 9, N-(3-Fluorophenyl)-N-methyl-3-((piperidin-4-ylidene)(3-hydroxyphenyl)methyl)-benzamide] | a decrease in the frequency of the bladder contractions
